# PubChem BioAssay AID1508588 | Peter MacCallum Cancer Centre – 2020
# Test: 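Genome-wide search for knock-downs that heighten vemurafenib action in melanoma cells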 (primary screen)
# System: human WM266.4 melanoma cells (BRAF V600 mutant)
# Reagent: siRNA pool against human genes, 40 nM
# Timing: 96 h from transfection to read-out
# Treatment: vemurafenib 300 nM (about IC25), added 48 h after transfection, for 48 h; comparison arm got DMSO vehicle only
# Measured: 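Ratios to non-targeting siRNA for cell gain, counted as DAPI nuclei after minus before drug and averaged over two replicates, and for absorbance-read medium lactate per cell; both binned into fold-change classes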
# Reading the numbers: cell gain with vemurafenib: higher = more cell gain than with non-targeting siRNA; lactate per cell with vemurafenib: higher = more lactate made per cell
# Rule for the call: 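Enhancement is called by pairing each knock-down's vehicle-arm and drug-arm fold-change classes for viability or glycolysis; which class combinations qualify is not given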
# Calls: active = enhances vemurafenib effect; inactive = no enhancement seen
# Here is a random part of about 18,000 reagents. 790 of all reagents (4.4%) were called active. 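Calls rest on a combination of fold-change classes in drug and vehicle arms, not all shown here.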
gene,cell gain with vemurafenib,lactate per cell with vemurafenib,outcome
SLC19A1,0.66,1.59,inactive
DKK1,0.84,0.62,inactive
FJX1,0.55,0.72,inactive
CXCL3,1.09,1.23,inactive
TIAM2,0.41,1.2,inactive
GPD1,0.73,0.64,inactive
PCDH17,0.92,0.62,inactive
LGALS7B,0.74,1.9,inactive
CMYA5,0.82,1.23,inactive
MEP1B,0.53,0.66,inactive
SPATA46,0.93,0.74,inactive

A stretch from the list above, as a working copy:
gene,cell gain with vemurafenib,lactate per cell with vemurafenib,outcome
DKK1,0.84,0.62,inactive
FJX1,0.55,0.72,inactive
CXCL3,1.09,1.23,inactive
TIAM2,0.41,1.2,inactive
GPD1,0.73,0.64,inactive
PCDH17,0.92,0.62,inactive

Additional results follow.
gene,cell gain with vemurafenib,lactate per cell with vemurafenib,outcome
ZBTB18,1.22,0.66,inactive
TAF1C,0.69,0.86,inactive
DTD1,0.92,0.48,inactive
CALML5,0.64,1.11,inactive
OR1C1,0.29,1.25,inactive
HCST,0.86,0.72,inactive
ADAMTS20,0.89,0.5,inactive
IRX3,0.57,0.23,inactive
FABP3,1.15,0.76,inactive
LAMA5,0.61,1.7,inactive
DOCK3,1.1,0.7,inactive
ABRAXAS2,0.58,0.86,inactive
TLCD1,0.63,0.76,inactive
AMOT,0.83,1.09,inactive
TSPYL1,0.89,0.78,inactive
SPATA31E1,0.71,0.02,active
COPS2,0.63,1.53,inactive
HAVCR1,0.67,1,inactive
GLI3,0.57,0.82,inactive
DGCR6,0.43,1.12,inactive
RPP14,0.49,1.49,inactive
SELENOP,0.85,0.67,inactive
STX16,0.68,0.71,inactive
